Source: publication PMC7434918
No constants are given. Whether binding was seen depends on the method and setting. In cells and extracts the contact can be indirect. Some entries that bind do so weakly or less than the wild type.

Sequences of proteins named here, by UniProt entry; tags and fusion partners are left off. Residues count along the entry.
UniProt O75460, residues 19-977: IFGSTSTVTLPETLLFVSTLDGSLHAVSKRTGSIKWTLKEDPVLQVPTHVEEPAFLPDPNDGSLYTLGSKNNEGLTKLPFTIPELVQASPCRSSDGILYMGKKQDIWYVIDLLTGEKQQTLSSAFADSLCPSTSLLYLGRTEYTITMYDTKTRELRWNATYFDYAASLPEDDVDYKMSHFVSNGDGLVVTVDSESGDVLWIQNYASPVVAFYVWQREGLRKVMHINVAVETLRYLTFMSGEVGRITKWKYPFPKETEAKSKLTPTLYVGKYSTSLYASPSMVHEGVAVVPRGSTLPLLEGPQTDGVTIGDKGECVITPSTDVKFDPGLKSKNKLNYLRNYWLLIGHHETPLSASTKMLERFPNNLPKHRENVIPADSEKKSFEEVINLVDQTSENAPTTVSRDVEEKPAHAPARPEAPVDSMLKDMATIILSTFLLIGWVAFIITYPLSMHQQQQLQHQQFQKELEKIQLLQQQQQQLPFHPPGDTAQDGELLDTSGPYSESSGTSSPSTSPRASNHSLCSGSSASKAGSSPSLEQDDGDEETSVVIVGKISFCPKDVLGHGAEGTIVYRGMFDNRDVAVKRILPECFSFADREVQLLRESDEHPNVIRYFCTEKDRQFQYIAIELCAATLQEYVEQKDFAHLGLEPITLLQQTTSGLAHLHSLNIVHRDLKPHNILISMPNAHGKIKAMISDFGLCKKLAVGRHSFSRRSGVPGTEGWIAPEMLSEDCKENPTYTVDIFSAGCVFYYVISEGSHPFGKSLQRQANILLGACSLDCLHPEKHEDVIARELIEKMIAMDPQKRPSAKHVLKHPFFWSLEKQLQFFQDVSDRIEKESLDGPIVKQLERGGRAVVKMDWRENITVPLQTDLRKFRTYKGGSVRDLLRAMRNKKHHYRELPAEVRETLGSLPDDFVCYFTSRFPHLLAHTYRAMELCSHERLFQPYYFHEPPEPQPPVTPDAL

Molecular target: HA-tagged inositol-requiring enzyme 1-α (IRE1α) (UniProt O75460)
Assay: co-IP; HEK293T cells co-transfected with pMSCV-IRE1α-HA and pLacIOP alone or CAV1 constructs, 48 h; lysis buffer 0.5% NP-40, 350 mM NaCl, 150 mM KCl, 50 mM Tris pH 7.6; extracts incubated with anti-HA antibody-agarose 4 h at 4 °C, washed 3 times; CAV1 and IRE1α detected by blot

binding: binds
B1: Caveolin-1 (CAV1), wild type (protein, UniProt P33724 1-178)
chain: MSGGKYVDSEGHLYTVPIREQGNIYKPNNKAMAEEMSEKQVYDAHTKEIDLVNRDPKHLNDDVVKIDFEDVIAEPEGTHSFDGIWKASFTTFTVTKYWFYRLLSALFGIPMALIWGIYFAILSFLHIWAVVPCIKSFLIEIQCISRVYSIYVHTFCDPFFEAVGKIFSNIRINMQKET
